{"source": "patent US8642545B2", "about": "“Erythropoietin mimetic peptide derivative and its pharmaceutical salts, the preparation and uses thereof” (Jiangsu Hansoh Pharmaceutical Co., Ltd, priority 2007, dated 2014)", "tested_on": "erythropoiesis of mice", "assay": "Effects of EPO mimetic peptide derivatives on mice, sc injection on three consecutive days, peripheral blood cell and reticulocyte counts", "assay_type": "in vivo, Kunming mice", "set-up": "Hemoglobin: unit not given here", "settings": "mouse, 4.5 mg/kg; for Blood Cell Hematocrit / Hemoglobin: d1-3; for Red Blood Cell Count / Reticulocyte Count: d1-3, x ± SD", "protocol": "The biological activity of EPO, or EPO mimetic peptide derivatives and their pharmaceutical salts provided by this invention can be determined by various assays known in this field. Testing of in vivo activity is performed as follows: mice are subcutaneously injected with EPO and EPO mimetic peptide derivatives and their pharmaceutical salts provided by this invention on three consecutive days. The mice are then sacrificed. The whole blood is taken to carry out peripheral blood cells and reticulocyte count. The blood cell count is performed by automatic blood cell counter. […] The dose of EPO protein as a control drug is 240 μ/kg. The drugs are administered three times per week and the administration continues for six weeks. The blood samples are collected to carry out related hematological index analysis. The purpose of the experiments is to evaluate and compare the effects of EPO mimetic peptide derivatives and the EPO protein on erythropoiesis of mice. […] EPO is purchased from […] Pharmaceutical Co., Ltd. Kunming mice are purchased from the Chinese Academy of Sciences Shanghai Experimental Animal Center, weighing 25 30 g, ♀. The number of animals in each group is 10. Mice are injected subcutaneously with EPO mimetic peptide derivatives and EPO protein for three consecutive days. Then the mice are killed, the whole blood is used to carry out peripheral blood cells and reticulocyte counts. Blood cell count is performed using automatic blood cell counter counts.", "note": "At least one peptide structure holds a part that was inferred or is arguable (an end, a ring closure or a residue). At least one structure is not confirmed: it was looked up by name or label, or the drawing left a doubt. *1 amine or outer side, *2 acyl side, *3 side chain or, on linkers, in order; H or OH if unused. Bridges are numbered along the chain shown (N, C = ends). Roman numbers before positions name the chains, in order. [ ]: non-standard residue; d: D form. ξ: configuration not given here. X1 = NCCNC(=O)OC(CCC(=O)[*:1])CCC(=O)[*:2]; Nle = CCCC[C@H](N)C(=O)O; ξK = NCCCCC(N)C(=O)O; βAla = NCCC(=O)O", "data": [{"substance": "I: Ac-GGTYSCHFGSLTWVCRPQRG[βAla][ξK]-NH2 / II: Ac-GGTYSCHFGSLTWVCRPQRG[βAla][ξK]-NH2 (disulfide I:6-I:15, II:6-II:15; linker I:22-II:22 via X1) [HH-EPO-007]", "values": [{"measurement": "Blood Cell Hematocrit", "result": "49.4 ± 17.1", "unit": "%"}, {"measurement": "Hemoglobin", "result": "14.8 ± 4.8"}, {"measurement": "Red Blood Cell Count", "result": "9.1 ± 3.1 ×10^6/μL"}, {"measurement": "Reticulocyte Count", "result": "553.5 ± 26.6 ×10^9/L"}]}, {"substance": "I: Ac-GGTYSCHFGALTWVCRPQRG[βAla][ξK]-NH2 / II: Ac-GGTYSCHFGALTWVCRPQRG[βAla][ξK]-NH2 (disulfide I:6-I:15, II:6-II:15; linker I:22-II:22 via X1) [HH-EPO-008]", "values": [{"measurement": "Blood Cell Hematocrit", "result": "54.0 ± 1.7", "unit": "%"}, {"measurement": "Hemoglobin", "result": "16.1 ± 0.5"}, {"measurement": "Red Blood Cell Count", "result": "9.6 ± 0.2 ×10^6/μL"}, {"measurement": "Reticulocyte Count", "result": "908.1 ± 21.7 ×10^9/L"}]}, {"substance": "I: Ac-GGTYSC[Nle]FGPLTWVCRPQRG[βAla][ξK]-NH2 / II: Ac-GGTYSC[Nle]FGPLTWVCRPQRG[βAla][ξK]-NH2 (disulfide I:6-I:15, II:6-II:15; linker I:22-II:22 via X1) [HH-EPO-006]", "values": [{"measurement": "Blood Cell Hematocrit", "result": "50.5 ± 2.8", "unit": "%"}, {"measurement": "Hemoglobin", "result": "15.3 ± 0.9"}, {"measurement": "Red Blood Cell Count", "result": "9.6 ± 0.5 ×10^6/μL"}, {"measurement": "Reticulocyte Count", "result": "515.0 ± 22.7 ×10^9/L"}]}, {"substance": "I: Ac-GGTYSCHFGPLTWVCRPQRG[βAla][ξK]-NH2 / II: Ac-GGTYSCHFGPLTWVCRPQRG[βAla][ξK]-NH2 (disulfide I:6-I:15, II:6-II:15; linker I:22-II:22 via X1) [HH-EPO-005]", "values": [{"measurement": "Blood Cell Hematocrit", "result": "54.4 ± 3.2", "unit": "%"}, {"measurement": "Hemoglobin", "result": "16.3 ± 0.9"}, {"measurement": "Red Blood Cell Count", "result": "10.1 ± 0.6 ×10^6/μL"}, {"measurement": "Reticulocyte Count", "result": "947.2 ± 14.7 ×10^9/L"}]}]}
